According to publication PMC4126725:
These are yes or no findings as the source states them, for the method shown. Binding seen in cells or lysates may run through a third protein. Where a sequence is shown, tags or fusion partners need not be part of it.

Amino acid sequences for entries named in this document (tags omitted).
UniProt Q9Y4B6: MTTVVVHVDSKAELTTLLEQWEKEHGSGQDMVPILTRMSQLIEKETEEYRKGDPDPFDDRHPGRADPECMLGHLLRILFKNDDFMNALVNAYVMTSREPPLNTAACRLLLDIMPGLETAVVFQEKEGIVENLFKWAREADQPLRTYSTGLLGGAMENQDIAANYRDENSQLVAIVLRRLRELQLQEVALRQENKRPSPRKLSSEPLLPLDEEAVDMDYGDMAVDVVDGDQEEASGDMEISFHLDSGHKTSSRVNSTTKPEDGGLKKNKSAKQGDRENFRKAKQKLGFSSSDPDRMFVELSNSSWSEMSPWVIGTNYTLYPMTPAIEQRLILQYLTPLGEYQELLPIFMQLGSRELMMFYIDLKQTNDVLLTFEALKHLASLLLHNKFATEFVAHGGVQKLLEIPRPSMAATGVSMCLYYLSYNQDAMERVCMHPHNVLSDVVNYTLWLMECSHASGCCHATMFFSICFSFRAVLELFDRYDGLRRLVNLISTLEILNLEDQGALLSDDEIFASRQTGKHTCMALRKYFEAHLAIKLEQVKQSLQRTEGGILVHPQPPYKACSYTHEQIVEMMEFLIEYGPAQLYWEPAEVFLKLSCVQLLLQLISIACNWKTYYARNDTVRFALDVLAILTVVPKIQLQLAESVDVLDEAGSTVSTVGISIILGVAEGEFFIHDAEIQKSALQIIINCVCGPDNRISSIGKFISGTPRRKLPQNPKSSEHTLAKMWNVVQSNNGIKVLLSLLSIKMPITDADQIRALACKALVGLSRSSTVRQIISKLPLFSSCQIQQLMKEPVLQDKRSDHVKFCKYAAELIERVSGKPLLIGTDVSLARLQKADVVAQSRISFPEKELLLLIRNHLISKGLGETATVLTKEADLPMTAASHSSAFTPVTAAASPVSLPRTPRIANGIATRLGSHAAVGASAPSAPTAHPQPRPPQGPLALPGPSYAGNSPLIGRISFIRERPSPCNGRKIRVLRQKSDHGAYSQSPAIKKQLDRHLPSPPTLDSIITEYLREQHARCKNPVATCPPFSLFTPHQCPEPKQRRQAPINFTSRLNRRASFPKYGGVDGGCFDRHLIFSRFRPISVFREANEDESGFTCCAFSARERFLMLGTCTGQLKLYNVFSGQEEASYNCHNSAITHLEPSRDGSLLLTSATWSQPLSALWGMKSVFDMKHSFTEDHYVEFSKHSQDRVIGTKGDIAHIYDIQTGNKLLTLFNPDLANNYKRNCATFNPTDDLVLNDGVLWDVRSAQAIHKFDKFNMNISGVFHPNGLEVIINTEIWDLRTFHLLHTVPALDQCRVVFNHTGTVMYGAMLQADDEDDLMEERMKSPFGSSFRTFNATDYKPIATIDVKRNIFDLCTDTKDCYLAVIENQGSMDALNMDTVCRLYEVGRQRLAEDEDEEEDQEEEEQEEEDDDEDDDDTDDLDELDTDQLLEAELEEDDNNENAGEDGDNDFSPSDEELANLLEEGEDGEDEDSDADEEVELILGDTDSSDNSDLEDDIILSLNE

Biological target: T1, Myc-TRIM11 (human) (UniProt Q96F44)
T1 sequence: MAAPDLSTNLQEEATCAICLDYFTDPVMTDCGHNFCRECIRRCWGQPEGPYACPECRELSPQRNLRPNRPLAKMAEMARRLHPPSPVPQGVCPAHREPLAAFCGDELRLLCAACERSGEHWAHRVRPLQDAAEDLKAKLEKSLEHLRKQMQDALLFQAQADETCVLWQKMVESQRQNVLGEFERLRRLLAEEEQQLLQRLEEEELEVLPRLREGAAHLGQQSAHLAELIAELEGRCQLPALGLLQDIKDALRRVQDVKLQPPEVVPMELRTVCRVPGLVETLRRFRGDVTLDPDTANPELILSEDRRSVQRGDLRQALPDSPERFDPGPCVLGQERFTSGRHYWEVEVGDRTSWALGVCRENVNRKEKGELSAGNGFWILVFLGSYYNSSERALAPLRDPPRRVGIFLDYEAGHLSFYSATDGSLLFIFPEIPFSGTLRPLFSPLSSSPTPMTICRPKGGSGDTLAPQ
Assay: co-IP; HEK293 cells cotransfected with TRIM11-Myc, Vpr-Flag and VprBP-HA vectors; lysates 24 h after transfection; protein G agarose with 1 ug control mouse IgG, anti-Myc or anti-HA MAb, overnight at 4°C; immunoblotting

Which binding does the source give for VprBP-HA (from UniProt Q9Y4B6 1-1507) here?
The binding was “no binding”.
